Source: PMC9614494
These are yes or no findings as the source states them, for the method shown. Binding calls can cover weak binding; strength is not graded here.

Biological target: T1, recombinant GBP of the cross-linking experiment (Arabidopsis thaliana) (UniProt Q9LU39)
T1 sequence: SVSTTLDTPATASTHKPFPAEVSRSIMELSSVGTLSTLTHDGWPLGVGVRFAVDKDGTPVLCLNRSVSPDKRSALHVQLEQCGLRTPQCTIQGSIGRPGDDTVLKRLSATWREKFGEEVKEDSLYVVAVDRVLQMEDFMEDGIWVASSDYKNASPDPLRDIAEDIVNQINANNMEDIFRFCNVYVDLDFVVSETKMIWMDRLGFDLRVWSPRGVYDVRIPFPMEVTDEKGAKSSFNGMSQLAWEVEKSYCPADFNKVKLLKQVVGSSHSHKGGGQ
Test: cross-linking; all three recombinant proteins (GluTR, GBP, GSAAT) mixed together, 1 mM DSSO in PBS, 1 h, room temperature, trypsin, LC-MS/MS, MaxQuant; both purified

recombinant 6xHis-GSAAT (Arabidopsis thaliana) (enzyme)
binding: binds
